Reference: PubChem BioAssay AID1259308 (NCATS, 2017)

Purpose: 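Genes whose loss raises luciferase production in HEK293 cells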 (primary screen)
Cells: human HEK293 embryonic kidney cells stably expressing firefly luciferase (HEK-CMV-Luc2-Hygro)
Knock-down reagent: single siRNA against human genes, 0.8 pmol siRNA per well
Time to read-out: 72 h
Read-out: 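Luciferase light (ONE-Glo) measured on one replicate plate set and viability (CellTiter-Glo) on the other, scaled to a negative control siRNA, with robust z-scores and luciferase per cell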
Direction: total luciferase, z-score and total luciferase, % of control: higher = more reporter protein produced
Active means: 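An siRNA counts as active if its total luciferase robust z-score exceeds 3; genes with two or more such siRNAs out of three were retested with fresh siRNAs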
Meaning of the calls: active = raised luciferase; inactive = no rise
The whole screen tested about 59,000 reagents; shown is an unselected part. About 1,510 of them (2.6%) were called active. 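Calls use total luciferase alone and ignore viability, so some active siRNAs may act by altering cell number.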 Unmarked entries are inactive. Further read-outs or replicates are left out here.

For NUDT5 [SID160730088], how do the results read?
total luciferase, z-score: 2; total luciferase, % of control: 122

With NUDT5 [SID160730089], what does the deposit list?
total luciferase, z-score: 1.1; total luciferase, % of control: 104

Which result is listed for NUDT5 [SID160730090]?
total luciferase, z-score: -0.0604; total luciferase, % of control: 80.7

What is on record for MDM2 [SID160731225]?
total luciferase, z-score: 0.338; total luciferase, % of control: 88.6

What is on record for MDM2 [SID160777091]?
total luciferase, z-score: 0.422; total luciferase, % of control: 90.3

What did the screen give for MDM2 [SID160777093]?
total luciferase, z-score: 3.63 (active); total luciferase, % of control: 154

With DPYD [SID160730718], what does the deposit list?
total luciferase, z-score: -2.13; total luciferase, % of control: 39.6

What is on record for DPYD [SID160756068]?
total luciferase, z-score: -1.2; total luciferase, % of control: 58

For DPYD [SID160756087], what was measured?
total luciferase, z-score: 0.719; total luciferase, % of control: 96.2

How did the screen score QNG1 [SID160752002]?
total luciferase, z-score: -0.133; total luciferase, % of control: 79.2

What is on record for QNG1 [SID160752003]?
total luciferase, z-score: 0.932; total luciferase, % of control: 100

For QNG1 [SID160752004], how do the results read?
total luciferase, z-score: 0.539; total luciferase, % of control: 92.6

What is on record for TNFSF18 [SID160721251]?
total luciferase, z-score: -0.294; total luciferase, % of control: 76

For TNFSF18 [SID160721252], what was measured?
total luciferase, z-score: -0.865; total luciferase, % of control: 64.7

For TNFSF18 [SID160721253], how do the results read?
total luciferase, z-score: -1.02; total luciferase, % of control: 61.7

Records listed so far whose gene name starts with T or t (3):
TNFSF18 [SID160721251] → total luciferase, z-score: -0.294; total luciferase, % of control: 76
TNFSF18 [SID160721252] → total luciferase, z-score: -0.865; total luciferase, % of control: 64.7
TNFSF18 [SID160721253] → total luciferase, z-score: -1.02; total luciferase, % of control: 61.7

More entries follow.
What did the screen give for SPICE1 [SID160759216]?
total luciferase, z-score: 0.401; total luciferase, % of control: 89.9

What did the screen give for SPICE1 [SID160759217]?
total luciferase, z-score: -0.476; total luciferase, % of control: 72.4

What is on record for SPICE1 [SID160759218]?
total luciferase, z-score: -0.0895; total luciferase, % of control: 80.1

How did the screen score VAMP4 [SID160720576]?
total luciferase, z-score: -0.423; total luciferase, % of control: 73.5

For VAMP4 [SID160720577], what was measured?
total luciferase, z-score: -1.7; total luciferase, % of control: 48

Which result is listed for VAMP4 [SID160720578]?
total luciferase, z-score: -0.825; total luciferase, % of control: 65.5

How did the screen score ACOT9 [SID160736648]?
total luciferase, z-score: 0.154; total luciferase, % of control: 85

With ACOT9 [SID160736649], what was measured?
total luciferase, z-score: -0.039; total luciferase, % of control: 81.1

With ACOT9 [SID160736650], how do the results read?
total luciferase, z-score: 0.585; total luciferase, % of control: 93.5

For PNLIPRP3 [SID160755719], what was measured?
total luciferase, z-score: -0.322; total luciferase, % of control: 75.5

With PNLIPRP3 [SID160755720], what does the deposit list?
total luciferase, z-score: 2.08; total luciferase, % of control: 123

Which result is listed for PNLIPRP3 [SID160755721]?
total luciferase, z-score: -0.53; total luciferase, % of control: 71.3

For HYOU1 [SID160728646], how do the results read?
total luciferase, z-score: 0.226; total luciferase, % of control: 86.4

What did the screen give for HYOU1 [SID160728647]?
total luciferase, z-score: -1.36; total luciferase, % of control: 54.9

With HYOU1 [SID160728648], how do the results read?
total luciferase, z-score: 0.00944; total luciferase, % of control: 82.1

With UCP1 [SID160718576], what was measured?
total luciferase, z-score: -1.04; total luciferase, % of control: 61.2

How did the screen score UCP1 [SID160718577]?
total luciferase, z-score: -0.687; total luciferase, % of control: 68.2

Which result is listed for UCP1 [SID160718578]?
total luciferase, z-score: -0.337; total luciferase, % of control: 75.2
